Reference: patent US7410967B2 (priority 2002, dated 2008)
Where two headings read alike, the source gives them in different places. Some entries share one result that the patent states for a list of compounds.

Experiments:
Assay type in all cases: in vivo
[1] = tested on: Erysiphe graminis f.sp. hordei
[2] = tested on: Erysiphe graminis f.sp. tritici; settings: 200 ppm sprayed on wheat leaf segments; preventive fungicidal activity; assessed four days after inoculation
Botrytis cinerea = tested on: Botrytis cinerea
[3] = tested on: Puccinia recondita f.sp. tritici; settings: 200 ppm sprayed on wheat leaf segments; preventive fungicidal activity; assessed nine days after inoculation
Pyricularia oryzae = settings: 200 ppm sprayed on rice leaf segments; preventive fungicidal activity; assessed four days after inoculation
Pyrenophora teres = settings: 200 ppm sprayed on barley leaf segments; preventive fungicidal activity; assessed four days after inoculation
Septoria nodorum = settings: 200 ppm sprayed on wheat leaf segments; preventive fungicidal activity; assessed four days after inoculation
[4] = 200 ppm sprayed on barley leaf segments, preventive fungicidal activity, assessed four days after inoculation
[5] = 200 ppm sprayed on bean leaf disks, preventive fungicidal activity, assessed four days after inoculation

Measured: control of disease

COCC(C)Nc1c(-c2c(F)cc(F)cc2F)c(Cl)nc2nccnc12 (centres unmarked) [108 (1)]
greater than 60%: [1]; [4] | [2] | Botrytis cinerea; [5] | [3] | Pyricularia oryzae

CC(C)Nc1c(-c2c(F)cccc2F)c(Cl)nc2nccnc12 [3 (31)]
greater than 60%: [2] | [3]

CC(C)Nc1c(-c2c(F)cccc2Cl)c(Cl)nc2nccnc12 [3 (5)]
greater than 60%: [1]; [4] | Pyrenophora teres | Pyricularia oryzae

CCC(C)Nc1c(-c2c(F)cccc2Cl)c(F)nc2nccnc12 (centres unmarked) [2671 (103)]
greater than 60%: [1]; [4] | Pyrenophora teres | Septoria nodorum | [2] | [3] | Pyricularia oryzae

C/C=C/C(CC)Nc1c(-c2c(F)cc(F)cc2F)c(F)nc2nccnc12 (centres unmarked) [92 (103)]
greater than 60%: [1]; [4] | [2] | Botrytis cinerea; [5] | [3] | Pyricularia oryzae

Clc1ccc(-c2c(Cl)nc3nccnc3c2NC2CCCC2)c(Cl)c1 [16 (37)]
greater than 60%: [1]; [4] | Pyrenophora teres | [2] | Botrytis cinerea; [5] | [3] | Pyricularia oryzae

Fc1cccc(Cl)c1-c1c(Cl)nc2nccnc2c1N1CCOCC1 [20 (5)]
greater than 60%: [1]; [4] | Pyrenophora teres | Pyricularia oryzae

CN(C)c1nc2nccnc2c(Cl)c1-c1c(F)cc(F)cc1F [219 (6)]
greater than 60%: Pyricularia oryzae

CCC(C)Nc1c(-c2ccccc2F)c(Cl)nc2nccnc12 (centres unmarked) [23 (32)]
greater than 60%: [1]; [4]

CC(C)Nc1c(-c2c(F)cccc2Cl)c(F)nc2nccnc12 [2651 (103)]
greater than 60%: [1]; [4] | Pyrenophora teres | [2] | Botrytis cinerea; [5] | [3] | Pyricularia oryzae

Fc1cccc(Cl)c1-c1c(Cl)nc2nccnc2c1N1CCCC1 [161 (5)]
greater than 60%: Septoria nodorum | [2]

CC(C)Nc1nc2nccnc2c(Cl)c1-c1c(F)cc(F)cc1F [3 (6), [8-chloro-7-(2,4,6-trifluorophenyl)-pyrido[2,3-b]pyrazin-6-yl]-isopropylamine]
greater than 60%: [1]; in vivo | Botrytis cinerea; in vivo | Pyricularia oryzae

Fc1cccc(Cl)c1-c1c(Cl)nc2nccnc2c1N1CCCCC1 [162 (5)]
greater than 60%: [1]; [4] | Botrytis cinerea; [5]

CC1CCN(c2c(-c3c(F)cccc3Cl)c(Cl)nc3nccnc23)CC1 [22 (5)]
greater than 60%: [1]; [4] | Botrytis cinerea; [5]

CN1CCN(c2c(-c3ccc(Cl)cc3Cl)c(Cl)nc3nccnc23)CC1 [171 (37)]
greater than 60%: [1]; [4]

CN1CCN(c2c(-c3c(F)cc(F)cc3F)c(F)nc3nccnc23)CC1 [171 (103)]
greater than 60%: Pyricularia oryzae

CCC(C)Nc1nc2nccnc2c(Cl)c1-c1ccccc1Br (centres unmarked) [685 (43)]
greater than 60%: [1]; [4] | Septoria nodorum

CC(C)CNc1c(-c2c(F)cc(F)cc2F)c(F)nc2nccnc12 [58 (103)]
greater than 60%: [1]; [4] | Pyrenophora teres | Septoria nodorum | [2] | [3] | Pyricularia oryzae

CC(C)Nc1c(-c2ccc(Cl)cc2Cl)c(Cl)nc2nccnc12 [3 (37)]
greater than 60%: [1]; [4] | Pyricularia oryzae

Fc1cccc(Cl)c1-c1c(Cl)nc2nccnc2c1NC1CCCCC1 [17 (5)]
greater than 60%: [1]; [4] | [3]

CC1CCN(c2nc3nccnc3c(Cl)c2-c2c(F)cc(F)cc2F)CC1 [22 (6)]
greater than 60%: Septoria nodorum | [2] | Pyricularia oryzae

CN(C)c1c(-c2c(F)cc(F)cc2F)c(Cl)nc2nccnc12 [219 (1)]
greater than 60%: [2]

C[C@H](Nc1c(-c2c(F)cccc2Cl)c(F)nc2nccnc12)C(F)(F)F [2660 (103)]
greater than 60%: [1]; [4] | Pyrenophora teres | Septoria nodorum | [2] | Botrytis cinerea; [5] | [3]

Fc1cc(F)c(-c2c(NC3CCC3)nc3nccnc3c2Cl)c(F)c1 [15 (6)]
greater than 60%: [1]; [4]

C[C@H](Nc1c(-c2c(F)cc(F)cc2F)c(F)nc2nccnc12)C(F)(F)F [12 (103)]
greater than 60%: [1]; [4] | Pyrenophora teres | Septoria nodorum | [2] | [3] | Pyricularia oryzae

CCC(C)Nc1c(-c2c(F)cc(F)cc2F)c(Cl)nc2nccnc12 (centres unmarked) [23 (1)]
greater than 60%: [1]; [4] | Pyrenophora teres | Septoria nodorum | [2] | [3] | Pyricularia oryzae

Fc1cc(F)c(-c2c(Cl)nc3nccnc3c2NC2CCCCC2)c(F)c1 [17 (1)]
greater than 60%: [1]; [4] | Pyrenophora teres | Septoria nodorum | Botrytis cinerea; [5] | [3] | Pyricularia oryzae

Clc1ccc(-c2c(NC3CCCC3)nc3nccnc3c2Cl)c(Cl)c1 [678 (37)]
greater than 60%: [1]; [4] | Botrytis cinerea; [5] | [3] | Pyricularia oryzae

Fc1cc(F)c(-c2c(Cl)nc3nccnc3c2N2CCCCC2)c(F)c1 [162 (1)]
greater than 60%: [1]; [4] | [2] | [3]

CCCCNc1c(-c2c(F)cccc2Cl)c(Cl)nc2nccnc12 [4 (5)]
greater than 60%: [1]; [4] | Botrytis cinerea; [5] | [3] | Pyricularia oryzae

CC(C)Nc1c(-c2ccccc2Br)c(Cl)nc2nccnc12 [3 (43)]
greater than 60%: [1]; [4] | Pyricularia oryzae

CC1CCN(c2c(-c3c(F)cc(F)cc3F)c(Cl)nc3nccnc23)CC1 [22 (1)]
greater than 60%: [1]; [4] | [2] | Botrytis cinerea; [5]

CC(C)Nc1nc2nccnc2c(Cl)c1-c1c(F)cccc1Cl [3 (10)]
greater than 60%: Botrytis cinerea; [5]

C=C(C)CN(CC)c1c(-c2c(F)cccc2Cl)c(Cl)nc2nccnc12 [28 (5)]
greater than 60%: [1]; [4] | Botrytis cinerea; [5] | [3]

Fc1cc(F)c(-c2c(Cl)nc3nccnc3c2NC2CC2)c(F)c1 [14 (1)]
greater than 60%: [1]; [4] | Pyrenophora teres | Botrytis cinerea; [5] | [3] | Pyricularia oryzae

Fc1cc(F)c(-c2c(Cl)nc3nccnc3c2N2CCCC2)c(F)c1 [161 (1)]
greater than 60%: [1]; [4] | Pyrenophora teres | [3] | Pyricularia oryzae

CC(C)Nc1nc2nccnc2c(Cl)c1-c1ccc(Cl)cc1Cl [665 (37)]
greater than 60%: [1]; [4] | Pyrenophora teres | Septoria nodorum | [2] | [3]

CCCCNc1nc2nccnc2c(Cl)c1-c1c(F)cc(F)cc1F [4 (6)]
greater than 60%: [1]; [4]

CC(C)Nc1nc2nccnc2c(Cl)c1-c1c(F)cccc1F [665 (31)]
greater than 60%: [1]; [4]

Fc1cccc(Cl)c1-c1c(N2CCOCC2)nc2nccnc2c1Cl [20 (10)]
greater than 60%: [1]; [4]

CC(C)Nc1c(-c2ccccc2F)c(Cl)nc2nccnc12 [3 (32)]
greater than 60%: Pyricularia oryzae

Fc1cccc(Cl)c1-c1c(N2CCCC2)nc2nccnc2c1Cl [161 (10)]
greater than 60%: [1]; [4]

COCC(C)Nc1c(-c2c(F)cccc2Cl)c(Cl)nc2nccnc12 (centres unmarked) [108 (5)]
greater than 60%: [1]; [4] | Botrytis cinerea; [5] | [3] | Pyricularia oryzae

CCC(C)Nc1c(-c2ccccc2Br)c(Cl)nc2nccnc12 (centres unmarked) [23 (43)]
greater than 60%: [1]; [4]
